Results taken from PMC5520925.

Chains of the proteins cited; added tags and fusions are not shown.
UniProt Q12834: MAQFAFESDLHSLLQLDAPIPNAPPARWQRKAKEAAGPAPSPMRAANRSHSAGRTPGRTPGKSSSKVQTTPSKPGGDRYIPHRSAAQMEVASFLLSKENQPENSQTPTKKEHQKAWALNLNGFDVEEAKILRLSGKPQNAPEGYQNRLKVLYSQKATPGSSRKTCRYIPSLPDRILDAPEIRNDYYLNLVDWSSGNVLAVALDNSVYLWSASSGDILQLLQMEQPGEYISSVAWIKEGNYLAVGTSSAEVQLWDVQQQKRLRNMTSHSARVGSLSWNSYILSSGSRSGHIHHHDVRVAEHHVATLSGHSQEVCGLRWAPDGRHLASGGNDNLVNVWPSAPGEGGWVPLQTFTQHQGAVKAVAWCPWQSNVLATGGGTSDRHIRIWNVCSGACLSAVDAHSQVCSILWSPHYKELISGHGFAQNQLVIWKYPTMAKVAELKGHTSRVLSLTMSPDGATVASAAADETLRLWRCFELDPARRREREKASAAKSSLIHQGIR

Key:
[1] = biological target: T1, SMAR1, endogenous (human (endogenous in MCF7)) (UniProt Q8N9N5); test: co-IP; endogenous proteins; MCF7 cell extracts immunoprecipitated with SMAR1 antibody or IgG, immunoblot; un-irradiated cells; also irradiated cells with ATM inhibitor KU55933 (interaction restored); IP buffer 50 mM Tris pH 7.4, 200 mM NaCl, 0.1% Triton X-100, 4 C
T1 sequence: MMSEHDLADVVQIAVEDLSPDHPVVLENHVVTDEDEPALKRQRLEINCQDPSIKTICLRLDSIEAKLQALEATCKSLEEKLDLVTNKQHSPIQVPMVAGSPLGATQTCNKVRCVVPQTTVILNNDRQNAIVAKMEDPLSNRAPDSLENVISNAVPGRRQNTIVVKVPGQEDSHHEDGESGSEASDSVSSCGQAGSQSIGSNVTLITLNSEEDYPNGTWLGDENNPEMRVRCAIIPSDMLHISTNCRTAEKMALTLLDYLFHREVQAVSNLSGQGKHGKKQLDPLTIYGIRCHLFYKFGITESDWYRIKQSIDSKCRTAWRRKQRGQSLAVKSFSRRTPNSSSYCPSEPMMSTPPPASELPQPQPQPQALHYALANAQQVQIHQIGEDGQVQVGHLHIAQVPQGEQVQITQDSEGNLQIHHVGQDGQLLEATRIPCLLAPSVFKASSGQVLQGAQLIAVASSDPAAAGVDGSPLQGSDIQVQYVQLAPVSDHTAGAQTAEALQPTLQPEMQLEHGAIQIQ

[2] = biological target: FLAG-SMAR1-D1 (mutant of the first D-box, 40-43aa) (UniProt Q8N9N5); test: co-IP; MCF7 cells co-transfected with HA-Cdc20 and FLAG-SMAR1 (WT, D1 or D2); in Figure 2c treated with 10 uM MG132 for 6 h; whole cell extracts immunoprecipitated with anti-FLAG (or reciprocally), immunoblot; IP buffer 50 mM Tris pH 7.4, 200 mM NaCl, 0.1% Triton X-100, 4 C
[3] = biological target: FLAG-SMAR1-D2 (mutant of the second D-box, 290-293aa) (UniProt Q8N9N5); test: as above

| binding [1] | binding [2] | binding [3] | Substance |
| --- | --- | --- | --- |
| binds |  |  | JNK, endogenous (human (endogenous in MCF7)) (enzyme) |
|  | no binding | no binding | HA-Cdc20 (cell division cycle 20 homolog) (from UniProt Q12834 1-499) |

No constants are given. Whether binding was seen depends on the method and setting. In cells and extracts the contact can be indirect. For part of these data: Binding calls can cover weak binding; strength is not graded here.
